Strings that start with PEPTIDE1 are HELM notation: dots part the residues, brackets hold end groups and non-standard residues.
Test: peptide made by a vendor
Conditions: whole synthesis, HPLC

PEPTIDE1{L.I.G.L.Y.L.L.H.R.R.R.R.R.H}$$$$V2.0
purity (crude or final not stated): no less than 95%

— patent publication US20250019401A1 (Xiamen University, priority 2023, published 2025)
